Measurements as given in patent US8304236B2, “Modified biotin-binding protein” (Japan Tobacco Inc., priority 2008, dated 2012).
Changes are numbered by the printed parent chain. Numbers in names are those of the source. Some entries share one result that the patent states for a list of compounds.

Amino acid sequences for entries named in this document (tags omitted). Residues count along the entry.
UniProt P02751, 32-2477, species assumed: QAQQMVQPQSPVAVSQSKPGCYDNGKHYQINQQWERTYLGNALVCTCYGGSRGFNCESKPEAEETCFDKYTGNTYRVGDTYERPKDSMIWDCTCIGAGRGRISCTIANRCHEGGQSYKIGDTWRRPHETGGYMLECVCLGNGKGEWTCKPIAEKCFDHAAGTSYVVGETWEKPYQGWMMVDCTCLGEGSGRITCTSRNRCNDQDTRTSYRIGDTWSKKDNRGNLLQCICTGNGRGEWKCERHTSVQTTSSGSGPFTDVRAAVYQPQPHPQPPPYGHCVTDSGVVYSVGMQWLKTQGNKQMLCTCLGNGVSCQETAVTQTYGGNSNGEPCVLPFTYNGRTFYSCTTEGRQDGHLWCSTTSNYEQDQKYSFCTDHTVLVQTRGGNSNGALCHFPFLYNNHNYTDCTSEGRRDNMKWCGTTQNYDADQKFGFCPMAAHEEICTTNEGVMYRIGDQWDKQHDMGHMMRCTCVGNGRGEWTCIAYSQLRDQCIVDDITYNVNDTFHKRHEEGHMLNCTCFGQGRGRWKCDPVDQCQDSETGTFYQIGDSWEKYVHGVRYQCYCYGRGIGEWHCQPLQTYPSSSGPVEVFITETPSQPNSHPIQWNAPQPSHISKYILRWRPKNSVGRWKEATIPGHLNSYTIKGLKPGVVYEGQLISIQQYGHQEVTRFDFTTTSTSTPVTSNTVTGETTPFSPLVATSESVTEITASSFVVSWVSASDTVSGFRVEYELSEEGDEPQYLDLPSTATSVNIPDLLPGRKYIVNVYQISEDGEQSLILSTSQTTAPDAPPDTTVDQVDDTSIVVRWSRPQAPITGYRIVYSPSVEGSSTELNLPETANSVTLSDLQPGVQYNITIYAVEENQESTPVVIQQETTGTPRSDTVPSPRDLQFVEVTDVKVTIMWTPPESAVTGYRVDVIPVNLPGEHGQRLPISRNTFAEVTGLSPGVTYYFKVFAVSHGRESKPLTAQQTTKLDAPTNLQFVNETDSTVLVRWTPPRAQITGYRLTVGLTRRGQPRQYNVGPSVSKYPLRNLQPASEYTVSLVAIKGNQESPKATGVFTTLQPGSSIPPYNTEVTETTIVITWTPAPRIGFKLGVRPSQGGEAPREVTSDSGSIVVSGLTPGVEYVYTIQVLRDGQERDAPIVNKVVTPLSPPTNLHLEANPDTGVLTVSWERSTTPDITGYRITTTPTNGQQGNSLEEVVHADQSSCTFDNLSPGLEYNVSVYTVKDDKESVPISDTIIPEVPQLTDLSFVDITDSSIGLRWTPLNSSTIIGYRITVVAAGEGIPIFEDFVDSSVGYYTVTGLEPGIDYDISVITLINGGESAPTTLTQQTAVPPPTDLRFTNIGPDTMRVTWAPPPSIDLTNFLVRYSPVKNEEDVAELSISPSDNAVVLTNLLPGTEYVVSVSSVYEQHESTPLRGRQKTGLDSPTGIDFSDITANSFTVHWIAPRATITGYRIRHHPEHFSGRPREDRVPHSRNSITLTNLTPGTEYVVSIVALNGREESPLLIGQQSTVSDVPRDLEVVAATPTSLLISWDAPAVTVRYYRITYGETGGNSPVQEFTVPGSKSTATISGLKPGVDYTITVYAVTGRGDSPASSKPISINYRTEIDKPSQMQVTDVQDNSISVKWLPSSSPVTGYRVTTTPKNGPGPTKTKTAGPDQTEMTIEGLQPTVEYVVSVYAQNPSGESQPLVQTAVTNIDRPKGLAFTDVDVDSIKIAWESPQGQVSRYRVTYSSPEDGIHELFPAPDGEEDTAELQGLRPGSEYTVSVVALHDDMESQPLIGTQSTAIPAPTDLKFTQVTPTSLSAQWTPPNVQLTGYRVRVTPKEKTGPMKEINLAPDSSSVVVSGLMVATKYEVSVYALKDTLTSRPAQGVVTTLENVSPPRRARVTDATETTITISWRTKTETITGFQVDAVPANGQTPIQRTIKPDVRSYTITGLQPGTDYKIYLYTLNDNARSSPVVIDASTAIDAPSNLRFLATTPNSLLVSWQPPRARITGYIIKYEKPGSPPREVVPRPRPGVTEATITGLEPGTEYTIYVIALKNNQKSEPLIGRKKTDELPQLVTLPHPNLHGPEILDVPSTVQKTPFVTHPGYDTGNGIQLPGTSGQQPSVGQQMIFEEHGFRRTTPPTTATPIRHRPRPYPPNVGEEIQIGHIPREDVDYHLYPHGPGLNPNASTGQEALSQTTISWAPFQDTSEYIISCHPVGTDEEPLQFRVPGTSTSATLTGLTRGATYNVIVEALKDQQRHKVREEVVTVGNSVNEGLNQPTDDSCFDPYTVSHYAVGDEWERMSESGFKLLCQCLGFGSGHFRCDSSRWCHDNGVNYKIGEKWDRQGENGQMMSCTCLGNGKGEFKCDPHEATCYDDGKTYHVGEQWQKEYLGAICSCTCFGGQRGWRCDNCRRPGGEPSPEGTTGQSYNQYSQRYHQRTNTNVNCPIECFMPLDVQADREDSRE

B1: TM2 K141E: TM2 mutant in which lysine at position 141 was replaced with glutamic acid; SEQ ID NO: 10 (protein)
chain: MSDVQSSLTGTWYNELNSKMELTANKDGTLTGKYLSKVGDVYVPYPLSGRYNLQPPAGQGVALGWAVSWENSKIHSATTWSGQFFSESSPVILTQWLLSSSTARGDVWESTLVGNDSFTKTAPTEQQIAHAQLHCRAPRLE
modifications: Synthetic TM2 K141E
B2: TM2 R104EK141E: TM2 mutant, arginine 104 and lysine 141 each replaced with glutamic acid; SEQ ID NO: 16 (protein)
chain: B1 chain with R104E
modifications: Synthetic TM2 R104EK141E

Molecular target: fibronectin (Homo sapiens, UniProt P02751)
Assay: Non-specific binding to fibronectin (fibronectin-immobilized microplate, biotinylated HRP, A450)
Procedure: The fibronectin-binding of each low-pI TM2 was compared using a microplate to which fibronectin was immobilized. The concentration of fibronectin was adjusted to 50 μg/mL with a fixation solution exclusive for a New ELISA plate, and the fibronectin solution (50 μL) was added to each New ELISA plate (Sumitomo Bakelite), followed by shaking at 37° C. for 4 hours for immobilization. Then, the plate was washed with 0.1% Triton X-100-containing PBS (300 μL) three times and was then dried naturally.
TM2, K26A, K73Q, R104E, K141E, and R104EK141E mutants (50 μL each) were each added to the corresponding well of the plate and left at room temperature for 1 hour. The plate was washed with 300 μL/well of PBST (PBS buffer containing 0.1% Tween 20) three times. Then, biotinylated HRP diluted 5000 times with PBST containing 0.5% BSA was added at 50 μL/well and allowed to react with the mutant at room temperature for 1 hour. After washing with 300 μL/well of PBST three times, 50 μL/well of 1-Step Ultra TMB-ELISA solution was added to each well for color development. After termination of the color development with 50 μL/well of 2M sulfuric acid, absorbance at 450 nm was measured with an Infinite 200 microplate reader.
Non-specific binding of HALU TM2 to fibronectin was also investigated as in paragraph 1-10) of Example 1.

Molecule | amount of fibronectin binding, % of the amount in the wild type TM2 [%]
B1 | 10 to 20
B2 | 10 to 20
